Source: patent publication US10668125B2, “Peptide having highly-shifted accumulation to pancreatic cancer cells and tissues, and use of said peptide” (Niigata University, priority 2015, dated 2020)
Some of these results come from one statement about several compounds together.

Tested on: BxPC3 cells
Assay: Test Example 1: quantitative fluorescence in BxPC3 cells relative to HPNE cells
Assay type: cell-based, human
Settings: absorption into normal pancreatic duct epithelial cells (HPNE) designated as 1.0, 2 μM, 2 hours, FIG. 2B
Experimental: Those cells were cultured for 2 hours at 37° C. Subsequently, the cells were washed three times with the medium in order to remove the peptide-containing medium. Subsequently, the uptake of the various peptides in the living cells was visually evaluated using an inverted type fluorescence microscope. Prior to the microscopic examination, the culture supernatant containing the peptides were removed, the cells were washed three times with 1×PBS (−), and then the cells were treated with trypsin. Adherent cells were detached and were immediately transferred into a fresh 96-well plate. The cells were resuspended in a fresh culture fluid, and then a microscopic examination was performed.
The graph of FIG. 2A is a graph showing the proportions of fluorescence intensities detected in various cells, the proportions being obtained by quantitatively analyzing the fluorescence detected in the various cells to which various peptides were added in Test Example 1, and determining relative values by designating the fluorescence detected in HPNE cells, which are a human immortalized normal pancreatic duct epithelial cell line, as 1.0. […]

Sequence: RAWRQCRWR (FITC label) [Peptide 3, IVV library-derived 9-amino acid residue peptide, synthesized FITC-labeled]
- absorption ratio (S/N ratio) into BxPC3 cells: ≥ 10 times

Sequence: RRPTTWHKP (FITC label) [Peptide 4, IVV library-derived 9-amino acid residue peptide, synthesized FITC-labeled]
- absorption ratio (S/N ratio) into BxPC3 cells: ≥ 10 times
